# Results are given in words; binding and its absence hold for the method and conditions named. A result given as binding can be weak or reduced; the word gives no strength.
# Legend:
# [1] = target: T1, HAND1 (mouse) (UniProt Q64279); assay: two-hybrid; liquid yeast two-hybrid in S. cerevisiae; pGADT7 Gal4 activation domain-Nkx2-5 (WT or variant) co-transformed with pGBKT7 Gal4 DNA-binding domain-TF (NKX2-5, GATA4, TBX5, TBX20b or HAND1); high stringency liquid medium (-Ade/-His/-Leu/Trp), 30°C, FDG fluorescence at two time-points, T2 normalised to T1; N188K with HAND1 followed out to day 5
# T1 sequence: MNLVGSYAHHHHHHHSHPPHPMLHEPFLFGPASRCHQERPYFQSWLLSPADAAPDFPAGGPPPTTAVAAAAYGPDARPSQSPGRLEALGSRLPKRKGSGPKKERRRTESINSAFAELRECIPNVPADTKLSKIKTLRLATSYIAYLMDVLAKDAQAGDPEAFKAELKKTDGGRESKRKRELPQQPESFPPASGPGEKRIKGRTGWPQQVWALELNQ
# [2] = target: T2, TBX5 (mouse) (UniProt P70326); assay: as above
# T2 sequence: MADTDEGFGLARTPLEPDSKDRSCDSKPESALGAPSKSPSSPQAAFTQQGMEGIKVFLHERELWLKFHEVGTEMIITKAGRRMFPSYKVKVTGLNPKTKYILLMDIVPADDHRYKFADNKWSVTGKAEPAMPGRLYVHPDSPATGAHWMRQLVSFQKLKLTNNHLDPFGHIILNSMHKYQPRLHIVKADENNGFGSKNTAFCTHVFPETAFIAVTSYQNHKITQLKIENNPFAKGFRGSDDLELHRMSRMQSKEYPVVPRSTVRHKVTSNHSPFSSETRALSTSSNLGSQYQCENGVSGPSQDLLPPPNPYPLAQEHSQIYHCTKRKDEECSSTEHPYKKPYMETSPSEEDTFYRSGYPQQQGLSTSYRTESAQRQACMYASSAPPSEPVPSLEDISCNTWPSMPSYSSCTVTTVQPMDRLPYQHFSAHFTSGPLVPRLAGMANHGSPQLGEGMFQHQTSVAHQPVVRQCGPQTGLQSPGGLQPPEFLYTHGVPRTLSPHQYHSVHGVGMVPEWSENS
binding [1],binding [2],Substance
binds,binds weakly,NKX2-5 N188K (mouse)
–,binds,NKX2-5 Y259ter (mouse) (domain or fragment)
